In paper PMC4492822 (EMBO Molecular Medicine, 2015):
No constants are given. Whether binding was seen depends on the method and setting. Binding seen in cells or lysates may run through a third protein. Some entries that bind do so weakly or less than the wild type.

Amino acid sequences for entries named in this document (tags omitted).
UniProt O00571: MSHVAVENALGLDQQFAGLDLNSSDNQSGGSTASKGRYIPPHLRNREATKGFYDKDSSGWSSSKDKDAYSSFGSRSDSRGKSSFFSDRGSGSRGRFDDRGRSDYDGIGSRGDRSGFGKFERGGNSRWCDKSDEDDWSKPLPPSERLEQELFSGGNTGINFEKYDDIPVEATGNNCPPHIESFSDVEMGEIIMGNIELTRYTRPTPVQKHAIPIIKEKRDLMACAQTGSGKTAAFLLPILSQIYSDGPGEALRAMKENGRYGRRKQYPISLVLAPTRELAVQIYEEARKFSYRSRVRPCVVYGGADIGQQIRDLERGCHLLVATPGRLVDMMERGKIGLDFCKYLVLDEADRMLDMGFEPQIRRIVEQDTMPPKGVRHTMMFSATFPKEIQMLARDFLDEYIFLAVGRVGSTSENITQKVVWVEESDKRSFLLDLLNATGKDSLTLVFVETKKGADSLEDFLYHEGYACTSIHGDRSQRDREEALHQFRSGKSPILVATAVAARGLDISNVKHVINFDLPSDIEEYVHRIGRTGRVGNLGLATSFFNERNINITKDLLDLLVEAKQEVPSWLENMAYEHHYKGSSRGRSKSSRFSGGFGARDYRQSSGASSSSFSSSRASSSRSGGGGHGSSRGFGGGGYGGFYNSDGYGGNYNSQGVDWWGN
UniProt P35222: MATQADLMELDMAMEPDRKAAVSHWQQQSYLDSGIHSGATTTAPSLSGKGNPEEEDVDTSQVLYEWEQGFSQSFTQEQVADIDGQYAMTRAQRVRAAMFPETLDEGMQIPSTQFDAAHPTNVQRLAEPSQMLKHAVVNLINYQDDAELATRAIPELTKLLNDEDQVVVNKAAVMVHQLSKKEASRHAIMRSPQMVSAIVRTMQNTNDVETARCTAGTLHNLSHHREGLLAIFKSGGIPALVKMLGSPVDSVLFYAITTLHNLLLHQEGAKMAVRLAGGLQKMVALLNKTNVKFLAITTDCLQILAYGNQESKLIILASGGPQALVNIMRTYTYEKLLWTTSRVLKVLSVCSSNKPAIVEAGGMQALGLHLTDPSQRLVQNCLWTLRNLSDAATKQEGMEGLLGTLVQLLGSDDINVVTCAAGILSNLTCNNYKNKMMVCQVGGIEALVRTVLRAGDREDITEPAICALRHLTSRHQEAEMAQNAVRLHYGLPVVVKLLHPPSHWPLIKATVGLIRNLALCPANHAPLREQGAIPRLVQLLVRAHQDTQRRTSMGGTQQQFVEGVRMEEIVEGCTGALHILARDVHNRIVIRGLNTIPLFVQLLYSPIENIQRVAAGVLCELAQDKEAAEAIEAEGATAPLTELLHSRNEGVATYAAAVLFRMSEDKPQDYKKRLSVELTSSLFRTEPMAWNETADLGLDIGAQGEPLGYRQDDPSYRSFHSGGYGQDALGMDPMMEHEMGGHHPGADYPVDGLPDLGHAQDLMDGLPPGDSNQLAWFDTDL

Legend:
[1] = biological target: DDX3 (human (endogenous in A549 and H1299)) (UniProt O00571); assay: co-IP; antibodies (against DDX3, β-catenin or H3K4Me3 as control) cross-linked to protein A/G magnetic beads; A549 and H1299 cell lysates incubated overnight at 4°C; eluted at pH 2.0; immunoblot
[2] = biological target: β-catenin (human (endogenous in A549 and H1299)) (UniProt P35222); assay: as above

binding [1] | binding [2] | Substance
binds |  | β-catenin (from UniProt P35222 1-781)
 | binds | DDX3 (from UniProt O00571 1-662)
